Results reported in publication PMC12700556.
Results are given in words; binding and its absence hold for the method and conditions named. In cells and extracts the contact can be indirect. A yes stands for co-enrichment or nearness to the bait. Other partners may have been found.

Amino acid sequences for entries named in this document (tags omitted). A change or cut given only in a name is not applied to a line headed by its entry.
UniProt P15090: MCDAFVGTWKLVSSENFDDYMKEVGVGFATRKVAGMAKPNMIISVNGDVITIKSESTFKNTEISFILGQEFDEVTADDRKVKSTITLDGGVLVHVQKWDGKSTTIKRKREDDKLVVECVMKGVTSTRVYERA
UniProt P05556: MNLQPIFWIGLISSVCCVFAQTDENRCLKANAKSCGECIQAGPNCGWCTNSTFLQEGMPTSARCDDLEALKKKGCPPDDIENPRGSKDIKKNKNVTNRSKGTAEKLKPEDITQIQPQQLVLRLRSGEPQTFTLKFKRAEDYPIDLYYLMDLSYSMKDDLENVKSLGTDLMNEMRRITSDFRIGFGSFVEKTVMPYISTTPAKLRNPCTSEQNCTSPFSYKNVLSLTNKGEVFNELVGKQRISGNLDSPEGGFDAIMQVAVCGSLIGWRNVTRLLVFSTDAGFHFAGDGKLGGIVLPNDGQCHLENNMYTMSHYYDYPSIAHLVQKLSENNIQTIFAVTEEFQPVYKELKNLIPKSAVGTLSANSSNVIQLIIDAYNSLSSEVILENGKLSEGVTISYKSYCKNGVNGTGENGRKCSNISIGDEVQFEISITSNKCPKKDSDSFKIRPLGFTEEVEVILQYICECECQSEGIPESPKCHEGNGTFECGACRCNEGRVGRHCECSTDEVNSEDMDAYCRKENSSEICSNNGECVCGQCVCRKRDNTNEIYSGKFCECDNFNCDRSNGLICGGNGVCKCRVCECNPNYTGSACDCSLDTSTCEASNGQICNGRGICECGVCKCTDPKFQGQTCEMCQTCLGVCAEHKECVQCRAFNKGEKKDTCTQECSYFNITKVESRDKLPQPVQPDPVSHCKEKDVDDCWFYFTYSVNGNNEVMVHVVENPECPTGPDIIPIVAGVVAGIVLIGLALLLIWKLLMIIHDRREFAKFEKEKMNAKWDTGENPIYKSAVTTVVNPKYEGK

Biological target: biotinylated recombinant human FABP4 protein (fatty acid-binding protein 4) (human) (UniProt P15090)
Test: affinity purification with mass spectrometry; biotinylated rhFABP4 on the membrane surface of Huh7 cells, streptavidin capture, mass spectrometry (n = 1); surface proteins detected with >=2 unique peptides; only the target purified

binding: binds
Substance: integrin β 1 (ITGB1) (from UniProt P05556 21-798) (receptor)
